PubChem BioAssay AID1224830, NIAID, 2016

Screen: 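Regulators of TLR4 signalling towards TNF-alpha in macrophage-like cells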 (primary screen)
Cells: human THP-1 monocytic leukaemia cells, TNF dual-luciferase reporter clone, PMA-differentiated to macrophage-like cells
Reagent: siRNA pool against human genes, 50 nM
Time to read-out: LPS for 4 h, given about 3 days after siRNA transfection
Treatment: bacterial LPS (TLR4 ligand), 10 ng/ml
Measurement: 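Ratio of firefly to renilla light, scaled to the plate median and expressed as a robust z-score per replicate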
Reading the numbers: TNF reporter robust z-score: higher = stronger TNF reporter response to LPS
Rule for the call: 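a well is active when its z-score exceeds 2.8 or falls below -1.5; control wells carry no call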
This is a random part of about 18,000 reagents. About 2,900 of all reagents (16%) count as active. 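Calls are made per well; low scores hint the gene aids the LPS response, high scores that it dampens it.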 Unmarked entries are inactive. Repeated entries: four replicate wells of each siRNA pool. No sequences are given here.

SCLY → TNF reporter robust z-score: -1.12
SCLY → TNF reporter robust z-score: -0.49
SCLY → TNF reporter robust z-score: -0.41
SCLY → TNF reporter robust z-score: -0.11
PCDHGA9 → TNF reporter robust z-score: -1.49
PCDHGA9 → TNF reporter robust z-score: -0.42
PCDHGA9 → TNF reporter robust z-score: -1.07
PCDHGA9 → TNF reporter robust z-score: 0.04
STRC → TNF reporter robust z-score: 1.08
STRC → TNF reporter robust z-score: 2.09
STRC → TNF reporter robust z-score: 1.6
STRC → TNF reporter robust z-score: 2.25
ASRGL1 → TNF reporter robust z-score: 0.49
ASRGL1 → TNF reporter robust z-score: -0.43
ASRGL1 → TNF reporter robust z-score: -0.96
ASRGL1 → TNF reporter robust z-score: 0.62
NPL → TNF reporter robust z-score: -0.28
NPL → TNF reporter robust z-score: 0.31
NPL → TNF reporter robust z-score: 0.26
NPL → TNF reporter robust z-score: 0.23
PLS3 → TNF reporter robust z-score: 0.77
PLS3 → TNF reporter robust z-score: 0.36
PLS3 → TNF reporter robust z-score: 0.79
PLS3 → TNF reporter robust z-score: 0.32
TSPAN18 → TNF reporter robust z-score: -0.96
TSPAN18 → TNF reporter robust z-score: -0.33
TSPAN18 → TNF reporter robust z-score: -0.75
SMAD3 → TNF reporter robust z-score: -0.35
SMAD3 → TNF reporter robust z-score: 0.02
SMAD3 → TNF reporter robust z-score: 0.08
SMAD3 → TNF reporter robust z-score: 0.62
CCR2 → TNF reporter robust z-score: -2.28 (active)
CCR2 → TNF reporter robust z-score: -1.91 (active)
CCR2 → TNF reporter robust z-score: -1.1
CCR2 → TNF reporter robust z-score: -1.86 (active)

Sorted by “TNF reporter robust z-score” (ascending): some entries from above
TSPAN18 → TNF reporter robust z-score: -0.96
TSPAN18 → TNF reporter robust z-score: -0.75
TSPAN18 → TNF reporter robust z-score: -0.33
PLS3 → TNF reporter robust z-score: 0.32
PLS3 → TNF reporter robust z-score: 0.79
